The values that follow come from paper PMC4068158.

Amino acid sequences for entries named in this document (tags omitted). A change or cut given only in a name is not applied to a line headed by its entry.
UniProt Q9UNN5: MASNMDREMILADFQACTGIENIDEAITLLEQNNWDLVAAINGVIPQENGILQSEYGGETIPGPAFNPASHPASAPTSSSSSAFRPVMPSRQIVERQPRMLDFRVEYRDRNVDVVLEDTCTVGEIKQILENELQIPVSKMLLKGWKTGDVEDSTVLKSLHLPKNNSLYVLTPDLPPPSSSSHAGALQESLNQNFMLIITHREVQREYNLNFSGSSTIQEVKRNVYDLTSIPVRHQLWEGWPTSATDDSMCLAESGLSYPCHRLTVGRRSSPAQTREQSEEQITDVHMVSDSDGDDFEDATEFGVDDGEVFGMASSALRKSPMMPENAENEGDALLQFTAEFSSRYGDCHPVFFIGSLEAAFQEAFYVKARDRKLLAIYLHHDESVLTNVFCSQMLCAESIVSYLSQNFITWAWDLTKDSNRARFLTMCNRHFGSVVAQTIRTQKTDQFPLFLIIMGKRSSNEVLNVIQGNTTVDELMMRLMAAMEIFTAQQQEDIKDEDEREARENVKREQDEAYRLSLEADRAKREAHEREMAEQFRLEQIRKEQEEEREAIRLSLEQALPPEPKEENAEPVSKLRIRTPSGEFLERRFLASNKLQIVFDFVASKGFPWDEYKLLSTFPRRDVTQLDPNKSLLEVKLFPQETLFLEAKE
UniProt O95292: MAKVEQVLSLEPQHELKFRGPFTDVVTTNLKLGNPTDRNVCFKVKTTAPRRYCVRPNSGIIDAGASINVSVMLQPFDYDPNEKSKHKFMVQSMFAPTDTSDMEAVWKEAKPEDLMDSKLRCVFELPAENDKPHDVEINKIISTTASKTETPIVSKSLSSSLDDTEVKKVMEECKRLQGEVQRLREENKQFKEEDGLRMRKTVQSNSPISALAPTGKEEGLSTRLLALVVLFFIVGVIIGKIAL

The target of this assay is Flag-FAF1 lacking the UAS domain (human) (UniProt Q9UNN5). In words: co-IP; anti-Flag M2 beads on lysates of U2OS cells expressing the Flag-tagged bait (transfected or tetracycline-induced); buffer A (50 mM HEPES/KOH pH 7.2, 5 mM Mg(OAc)2, 70 mM KOAc, 0.2% Triton X-100, 10% glycerol, 0.2 mM EDTA), 4°C, 2 hr; endogenous prey by immunoblot; cells untreated, treated with MG132 or with siRNA (FAF1, p97, ASNA1, luciferase) as indicated. A general note: Immunoblotting shows a protein as a band on a membrane.

These are yes or no findings as the source states them, for the method shown. Binding seen in cells or lysates may run through a third protein. Binding can be weak; no strength is given.

In the case of “endogenous VAPB (human cells) (from UniProt O95292 1-243)”, the binding entry is given as “binds”.
